{"sequences": {"note": "By UniProt entry, the sequences of proteins in these tests, tags left out.", "UniProt Q0JBA9, entry or part of it": "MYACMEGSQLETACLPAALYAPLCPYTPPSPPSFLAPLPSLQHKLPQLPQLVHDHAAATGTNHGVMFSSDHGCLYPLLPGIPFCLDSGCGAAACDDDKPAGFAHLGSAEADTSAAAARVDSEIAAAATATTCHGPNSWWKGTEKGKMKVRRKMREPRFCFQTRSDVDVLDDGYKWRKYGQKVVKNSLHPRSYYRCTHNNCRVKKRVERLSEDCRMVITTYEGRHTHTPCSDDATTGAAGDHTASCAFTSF"}, "source": "paper PMC7819943", "about": "“Rice protein-binding microarrays: a tool to detect cis-acting elements near promoter regions in rice”", "note": "This is one part of the list.", "data": [{"target": "OsWRKY34 (Oryza sativa, UniProt Q0JBA9 1-250)", "assay": "protein-binding microarray (RPBM); PBS, 2% BSA, 51.3 ng/ul salmon testes DNA, 50 uM zinc acetate, 200 nM TF, 25 C, 1 h; high values mean tight binding", "settings": "protein: recombinant; tags: N-terminal polyhistidine and DsRed monomer fusion (pET32a); label: CyDye5-dUTP incorporated in the synthesized complementary strand; 3' TTTTT single-stranded linker to array surface; dsDNA, one strand shown", "how_it_was_run": "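Using Ni–NTA, transcription factors fused N-terminally to polyhistidine and DsRed were purified after expression in E. coli BL21-CodonPlus. These were incubated at 200 nM with a blocked, double-stranded custom Agilent array for 1 h at 25 °C in a buffer containing 50 µM zinc acetate, and the array was washed. The binding signal is per-feature fluorescence intensity (arbitrary units) on an Axon 4000B scanner.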", "values": [{"sequence": "GCGCTCCGCTACCTGTGCCTCGCCAACGCCGACCTCCTCGCGGAGTCACCTAGTGCAG", "binding signal": "9660 fluorescence intensity (a.u.)"}, {"sequence": "TTGTCATGTGGTTTCGTTGTCCTTGCGGTTCAATCAACGTCGGAGTCACCTAGTGCAG", "binding signal": "10900 fluorescence intensity (a.u.)"}, {"sequence": "AAGCTAGGTAGGAGGTTTTTGTGTGTGTGTGTGTGTGATGCGGAGTCACCTAGTGCAG", "binding signal": "8290 fluorescence intensity (a.u.)"}, {"sequence": "TTCCTAACTAAGTTTGTTGTATTTTTTTTTTTCAAGTACTCGGAGTCACCTAGTGCAG", "binding signal": "8180 fluorescence intensity (a.u.)"}, {"sequence": "CAACCTACTTCCTTACCACACTTGGTTTCTATAACAAACACGGAGTCACCTAGTGCAG", "binding signal": "8290 fluorescence intensity (a.u.)"}, {"sequence": "ACACTTGGCATTTTTACTTGTTATGATTCTAGTTTGACCACGGAGTCACCTAGTGCAG", "binding signal": "10800 fluorescence intensity (a.u.)"}, {"sequence": "CAGCAGTGTGTGTAAGAGGAGAGAGAAGCAGTGCCCTTTACGGAGTCACCTAGTGCAG", "binding signal": "8530 fluorescence intensity (a.u.)"}, {"sequence": "CTCTTTTGGTCATGTGTTTGGTACTGCTTGTCGCACTTTCCGGAGTCACCTAGTGCAG", "binding signal": "16000 fluorescence intensity (a.u.)"}, {"sequence": "GATACAACCATTGCTCACATCATGGATGAACAAGATGACACGGAGTCACCTAGTGCAG", "binding signal": "8160 fluorescence intensity (a.u.)"}, {"sequence": "ATGGAGGCGGTGGTCGGAGGTGGCAGACGATGCTCGGGGACGGAGTCACCTAGTGCAG", "binding signal": "8040 fluorescence intensity (a.u.)"}, {"sequence": "GAGGCCGGGGTCGGGGCGAGCGAGGCGAGAGGGGAGGAGGCGGAGTCACCTAGTGCAG", "binding signal": "8910 fluorescence intensity (a.u.)"}, {"sequence": "TTCATGCTTATCACCGCCTATGACTCAGCTTTTCAGCACTCGGAGTCACCTAGTGCAG", "binding signal": "8390 fluorescence intensity (a.u.)"}, {"sequence": "TTCTGAAACGTTCTTAATAACATGTCCCGTTTCTCTTTCTCGGAGTCACCTAGTGCAG", "binding signal": "8870 fluorescence intensity (a.u.)"}, {"sequence": "GCGTTGATGTTCCGAGGCTTGTCACAGGTGCTTATTTGTGCGGAGTCACCTAGTGCAG", "binding signal": "9670 fluorescence intensity (a.u.)"}, {"sequence": "TGTGACCTAGGATTGTTATTTTATATTTGTAGATTGTGTGCGGAGTCACCTAGTGCAG", "binding signal": "9140 fluorescence intensity (a.u.)"}, {"sequence": "TAGCAGTGTTCTTCATTGTAGATGCCCTTACTATTACTTTCGGAGTCACCTAGTGCAG", "binding signal": "8070 fluorescence intensity (a.u.)"}, {"sequence": "CTCTCTTGTCTAGCTATCTTTCTTTGCATGTCTTTGCATTCGGAGTCACCTAGTGCAG", "binding signal": "9760 fluorescence intensity (a.u.)"}, {"sequence": "TTTAGATTTTTTTTCTTCTTCAAACGTTCAACTTTTCCGTCGGAGTCACCTAGTGCAG", "binding signal": "9040 fluorescence intensity (a.u.)"}, {"sequence": "GGAGGCGTATTTTTTGTGCGTAAAGGTGGACTCGAAACTCCGGAGTCACCTAGTGCAG", "binding signal": "8500 fluorescence intensity (a.u.)"}, {"sequence": "ACAGTTATTTTTTCTGCGCTTTGCAAGTTGCAAATCTAAACGGAGTCACCTAGTGCAG", "binding signal": "10400 fluorescence intensity (a.u.)"}, {"sequence": "CTTATGTCTCACTAAATATTTACTTTTGCCATCGGCAAATCGGAGTCACCTAGTGCAG", "binding signal": "8080 fluorescence intensity (a.u.)"}, {"sequence": "CCACCCACTCGCTACCACTTTTTTTCCTTTGACTGAGTGTCGGAGTCACCTAGTGCAG", "binding signal": "16200 fluorescence intensity (a.u.)"}, {"sequence": "GCTTTCACACTAGGTGAGCACTCCACTGCCTGCCTCCGGCCGGAGTCACCTAGTGCAG", "binding signal": "9260 fluorescence intensity (a.u.)"}, {"sequence": "GGGCTTTGGGCTCTTGTATCGTCCCTGGGCCGTTCACCGCCGGAGTCACCTAGTGCAG", "binding signal": "8080 fluorescence intensity (a.u.)"}, {"sequence": "CTTCTCGCACCGCCGCCGCCGTTCACCGGAGTCTCCCTAACGGAGTCACCTAGTGCAG", "binding signal": "8740 fluorescence intensity (a.u.)"}, {"sequence": "CGTGGAGAGGATTTGAGTGCCTTTTTTGGAGTTTGAGGGGCGGAGTCACCTAGTGCAG", "binding signal": "9570 fluorescence intensity (a.u.)"}, {"sequence": "CACCACCGTGCACTTCACAATTCACACTACTCCTTCAGATCGGAGTCACCTAGTGCAG", "binding signal": "8340 fluorescence intensity (a.u.)"}, {"sequence": "TCGAGTTCCACATACGGTATTTTCTACTAGTACTCTATTTCGGAGTCACCTAGTGCAG", "binding signal": "9970 fluorescence intensity (a.u.)"}, {"sequence": "GGGAGACGGCACCCCTCGCGTGGGAGGGGACAGGGGAAAGCGGAGTCACCTAGTGCAG", "binding signal": "9460 fluorescence intensity (a.u.)"}, {"sequence": "GTGCTGGCTTTTTCTTTCTATAAACGTTTGATGAATTCTGCGGAGTCACCTAGTGCAG", "binding signal": "8290 fluorescence intensity (a.u.)"}, {"sequence": "ACGCCCCGGTCTACCTCTCTGTGCACCGACGACAGTGATGCGGAGTCACCTAGTGCAG", "binding signal": "9210 fluorescence intensity (a.u.)"}, {"sequence": "TCCAAACCTGTATGCTTCGCCATAACACACGACAATTGACCGGAGTCACCTAGTGCAG", "binding signal": "10700 fluorescence intensity (a.u.)"}, {"sequence": "GGTCGTCCGTCAGCATCCTCTCTCCGTCAAACTGTTTGGTCGGAGTCACCTAGTGCAG", "binding signal": "11100 fluorescence intensity (a.u.)"}, {"sequence": "ACTTCATTCGCTCGGATACTCAAGACTTGGTAACCTAGCACGGAGTCACCTAGTGCAG", "binding signal": "8090 fluorescence intensity (a.u.)"}, {"sequence": "TCACCACACAAGGTCATATGACCTCAATTCCTTGCCATTCCGGAGTCACCTAGTGCAG", "binding signal": "9340 fluorescence intensity (a.u.)"}, {"sequence": "TTCTATACGTTTAGGGTCTGTTTAGTTCACGTTTAGTTCACGGAGTCACCTAGTGCAG", "binding signal": "9320 fluorescence intensity (a.u.)"}, {"sequence": "ATGTTTAAAAAAGTCAACGGCATTAAATATTTAGGGACGGCGGAGTCACCTAGTGCAG", "binding signal": "13100 fluorescence intensity (a.u.)"}, {"sequence": "CGTCTGTTCTTTAAATGCGCTCGCCCAACTGCTCGCATCTCGGAGTCACCTAGTGCAG", "binding signal": "9310 fluorescence intensity (a.u.)"}, {"sequence": "TTTTCCTATACCCACACCATCCATCCCTTCGCCGGTTTCGCGGAGTCACCTAGTGCAG", "binding signal": "8150 fluorescence intensity (a.u.)"}, {"sequence": "GTGATATAGAGTTTTTGTATTTCCATATTTTGCTTATAGACGGAGTCACCTAGTGCAG", "binding signal": "8890 fluorescence intensity (a.u.)"}, {"sequence": "GAGCTTTTATTTGAGTCTATCTCTCTCGTCTAATTTATACCGGAGTCACCTAGTGCAG", "binding signal": "8710 fluorescence intensity (a.u.)"}, {"sequence": "TGTGCTGTGTGGTGTACTGGTGTGTGGGCTTAATAATTGTCGGAGTCACCTAGTGCAG", "binding signal": "14200 fluorescence intensity (a.u.)"}]}]}
